Source: PMC6258734
Results are given in words; binding and its absence hold for the method and conditions named. For part of these data: Binding seen in cells or lysates may run through a third protein. Some entries that bind do so weakly or less than the wild type. For part of these data: Tags and fused reporters may be left off the sequences shown.

Columns and labels:
VC-Slx5 (S. cerevisiae) = target: T1, VC-Slx5 (S. cerevisiae) (UniProt P32828); experiment: split reporter; BiFC (Venus fragments VN and VC) in live diploid S. cerevisiae, galactose inducible alleles, live microscopy; controls lacking one or both tagged proteins used to subtract background; signal in discrete nuclear foci
T1 sequence: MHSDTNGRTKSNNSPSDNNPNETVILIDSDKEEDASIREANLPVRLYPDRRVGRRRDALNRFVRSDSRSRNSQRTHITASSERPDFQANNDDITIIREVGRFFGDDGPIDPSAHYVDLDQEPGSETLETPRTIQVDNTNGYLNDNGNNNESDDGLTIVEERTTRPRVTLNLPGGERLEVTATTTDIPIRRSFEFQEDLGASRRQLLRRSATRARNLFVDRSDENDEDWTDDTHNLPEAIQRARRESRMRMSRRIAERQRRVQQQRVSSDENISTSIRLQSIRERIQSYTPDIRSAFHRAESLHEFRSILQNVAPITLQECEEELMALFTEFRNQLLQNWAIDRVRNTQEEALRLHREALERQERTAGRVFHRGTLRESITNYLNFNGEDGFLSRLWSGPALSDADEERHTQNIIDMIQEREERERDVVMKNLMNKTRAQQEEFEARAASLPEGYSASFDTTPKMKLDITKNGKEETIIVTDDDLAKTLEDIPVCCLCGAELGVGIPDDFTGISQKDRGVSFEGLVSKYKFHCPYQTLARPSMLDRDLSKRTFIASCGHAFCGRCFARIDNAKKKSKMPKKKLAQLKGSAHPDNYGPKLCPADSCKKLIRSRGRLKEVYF

GST-Slx5 (S. cerevisiae) = target: T2, GST-Slx5 (S. cerevisiae) (UniProt P32828); experiment: pull-down; lysate of YEN1-HA cells with galactose-induced GST-Slx5 (or empty vector) bound to Glutathione Sepharose in IP buffer (40 mM Tris-HCl pH 7.5, 10% glycerol, 0.1% NP40, 150 mM NaCl); eluted in Laemmli buffer, blotted with anti-HA and anti-GST
T2 sequence: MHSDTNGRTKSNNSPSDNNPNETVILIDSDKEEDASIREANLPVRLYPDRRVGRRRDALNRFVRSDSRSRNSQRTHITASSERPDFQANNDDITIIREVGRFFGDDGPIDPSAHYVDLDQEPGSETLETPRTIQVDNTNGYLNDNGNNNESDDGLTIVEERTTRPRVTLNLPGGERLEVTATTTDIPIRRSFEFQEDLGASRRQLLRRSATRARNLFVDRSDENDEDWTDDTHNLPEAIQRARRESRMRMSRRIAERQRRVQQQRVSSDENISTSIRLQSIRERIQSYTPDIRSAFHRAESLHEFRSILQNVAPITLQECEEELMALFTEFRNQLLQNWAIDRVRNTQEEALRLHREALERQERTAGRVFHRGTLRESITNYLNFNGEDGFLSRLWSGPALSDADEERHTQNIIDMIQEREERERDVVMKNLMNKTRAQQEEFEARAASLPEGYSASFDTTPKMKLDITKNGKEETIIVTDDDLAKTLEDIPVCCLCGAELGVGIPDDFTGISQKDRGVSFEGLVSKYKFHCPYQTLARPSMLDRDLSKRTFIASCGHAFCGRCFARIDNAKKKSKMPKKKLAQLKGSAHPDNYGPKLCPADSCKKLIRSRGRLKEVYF

DBD-Yen1 (S. cerevisiae) = target: T3, DBD-Yen1 (S. cerevisiae) (UniProt P40028); experiment: two-hybrid; yeast two-hybrid, AD and BD fusions; growth on medium lacking leucine and tryptophan, then spotted on medium lacking histidine to detect a positive interaction
T3 sequence: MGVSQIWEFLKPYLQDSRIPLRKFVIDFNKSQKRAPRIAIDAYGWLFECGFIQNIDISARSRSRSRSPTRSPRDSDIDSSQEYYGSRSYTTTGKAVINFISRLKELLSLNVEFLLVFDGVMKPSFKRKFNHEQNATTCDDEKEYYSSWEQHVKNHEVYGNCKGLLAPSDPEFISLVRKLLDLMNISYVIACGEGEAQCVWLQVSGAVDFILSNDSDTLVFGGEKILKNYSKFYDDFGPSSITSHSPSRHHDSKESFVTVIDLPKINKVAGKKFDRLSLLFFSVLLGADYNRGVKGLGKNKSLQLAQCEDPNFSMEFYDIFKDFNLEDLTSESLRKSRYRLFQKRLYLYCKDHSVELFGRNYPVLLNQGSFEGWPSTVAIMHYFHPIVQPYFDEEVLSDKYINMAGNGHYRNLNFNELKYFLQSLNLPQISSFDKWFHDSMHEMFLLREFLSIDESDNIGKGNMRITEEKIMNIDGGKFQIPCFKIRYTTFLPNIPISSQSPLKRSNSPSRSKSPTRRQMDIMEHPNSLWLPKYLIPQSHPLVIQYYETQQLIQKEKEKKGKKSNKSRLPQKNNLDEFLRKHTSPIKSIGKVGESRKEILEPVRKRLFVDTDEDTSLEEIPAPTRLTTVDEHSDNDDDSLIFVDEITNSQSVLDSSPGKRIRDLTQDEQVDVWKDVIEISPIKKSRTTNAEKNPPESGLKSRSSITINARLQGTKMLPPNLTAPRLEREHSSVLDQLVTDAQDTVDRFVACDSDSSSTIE

B1: VN-Yen1 (protein, UniProt P40028 1-759)
chain: MGVSQIWEFLKPYLQDSRIPLRKFVIDFNKSQKRAPRIAIDAYGWLFECGFIQNIDISARSRSRSRSPTRSPRDSDIDSSQEYYGSRSYTTTGKAVINFISRLKELLSLNVEFLLVFDGVMKPSFKRKFNHEQNATTCDDEKEYYSSWEQHVKNHEVYGNCKGLLAPSDPEFISLVRKLLDLMNISYVIACGEGEAQCVWLQVSGAVDFILSNDSDTLVFGGEKILKNYSKFYDDFGPSSITSHSPSRHHDSKESFVTVIDLPKINKVAGKKFDRLSLLFFSVLLGADYNRGVKGLGKNKSLQLAQCEDPNFSMEFYDIFKDFNLEDLTSESLRKSRYRLFQKRLYLYCKDHSVELFGRNYPVLLNQGSFEGWPSTVAIMHYFHPIVQPYFDEEVLSDKYINMAGNGHYRNLNFNELKYFLQSLNLPQISSFDKWFHDSMHEMFLLREFLSIDESDNIGKGNMRITEEKIMNIDGGKFQIPCFKIRYTTFLPNIPISSQSPLKRSNSPSRSKSPTRRQMDIMEHPNSLWLPKYLIPQSHPLVIQYYETQQLIQKEKEKKGKKSNKSRLPQKNNLDEFLRKHTSPIKSIGKVGESRKEILEPVRKRLFVDTDEDTSLEEIPAPTRLTTVDEHSDNDDDSLIFVDEITNSQSVLDSSPGKRIRDLTQDEQVDVWKDVIEISPIKKSRTTNAEKNPPESGLKSRSSITINARLQGTKMLPPNLTAPRLEREHSSVLDQLVTDAQDTVDRFVACDSDSSSTIE
- binding (VC-Slx5 (S. cerevisiae)): binds

B2: Yen1-HA (protein, UniProt P40028 1-759)
chain: MGVSQIWEFLKPYLQDSRIPLRKFVIDFNKSQKRAPRIAIDAYGWLFECGFIQNIDISARSRSRSRSPTRSPRDSDIDSSQEYYGSRSYTTTGKAVINFISRLKELLSLNVEFLLVFDGVMKPSFKRKFNHEQNATTCDDEKEYYSSWEQHVKNHEVYGNCKGLLAPSDPEFISLVRKLLDLMNISYVIACGEGEAQCVWLQVSGAVDFILSNDSDTLVFGGEKILKNYSKFYDDFGPSSITSHSPSRHHDSKESFVTVIDLPKINKVAGKKFDRLSLLFFSVLLGADYNRGVKGLGKNKSLQLAQCEDPNFSMEFYDIFKDFNLEDLTSESLRKSRYRLFQKRLYLYCKDHSVELFGRNYPVLLNQGSFEGWPSTVAIMHYFHPIVQPYFDEEVLSDKYINMAGNGHYRNLNFNELKYFLQSLNLPQISSFDKWFHDSMHEMFLLREFLSIDESDNIGKGNMRITEEKIMNIDGGKFQIPCFKIRYTTFLPNIPISSQSPLKRSNSPSRSKSPTRRQMDIMEHPNSLWLPKYLIPQSHPLVIQYYETQQLIQKEKEKKGKKSNKSRLPQKNNLDEFLRKHTSPIKSIGKVGESRKEILEPVRKRLFVDTDEDTSLEEIPAPTRLTTVDEHSDNDDDSLIFVDEITNSQSVLDSSPGKRIRDLTQDEQVDVWKDVIEISPIKKSRTTNAEKNPPESGLKSRSSITINARLQGTKMLPPNLTAPRLEREHSSVLDQLVTDAQDTVDRFVACDSDSSSTIE
- binding (GST-Slx5 (S. cerevisiae)): binds

B3: AD-Slx5 (protein, UniProt P32828 1-619)
chain: MHSDTNGRTKSNNSPSDNNPNETVILIDSDKEEDASIREANLPVRLYPDRRVGRRRDALNRFVRSDSRSRNSQRTHITASSERPDFQANNDDITIIREVGRFFGDDGPIDPSAHYVDLDQEPGSETLETPRTIQVDNTNGYLNDNGNNNESDDGLTIVEERTTRPRVTLNLPGGERLEVTATTTDIPIRRSFEFQEDLGASRRQLLRRSATRARNLFVDRSDENDEDWTDDTHNLPEAIQRARRESRMRMSRRIAERQRRVQQQRVSSDENISTSIRLQSIRERIQSYTPDIRSAFHRAESLHEFRSILQNVAPITLQECEEELMALFTEFRNQLLQNWAIDRVRNTQEEALRLHREALERQERTAGRVFHRGTLRESITNYLNFNGEDGFLSRLWSGPALSDADEERHTQNIIDMIQEREERERDVVMKNLMNKTRAQQEEFEARAASLPEGYSASFDTTPKMKLDITKNGKEETIIVTDDDLAKTLEDIPVCCLCGAELGVGIPDDFTGISQKDRGVSFEGLVSKYKFHCPYQTLARPSMLDRDLSKRTFIASCGHAFCGRCFARIDNAKKKSKMPKKKLAQLKGSAHPDNYGPKLCPADSCKKLIRSRGRLKEVYF
- binding (DBD-Yen1 (S. cerevisiae)): binds
